Source: patent publication US20180256673A1, “METHODS FOR TREATING FUNGAL INFECTIONS” (priority 2015, published 2018)
No dose or concentration is given here for some results. Starred links: 1 amine or outer side, 2 acyl side, 3 side chain; linkers in the order of their positions; H or OH if unused. Positions of bridges follow the written chain, without caps; N, C: chain ends. Non-standard residues stand in square brackets, D forms with d. Residues, ends and D or L forms follow the SMILES beside them. *: point of attachment. pTerphenylCO(4''-OnC5H11) = CCCCCOc1ccc(-c2ccc(-c3ccc(C(=O)*)cc3)cc2)cc1; Orn(4R-OH,5R-OH) = O=C([C@H](C[C@@H](O)[C@@H](O)N[*:3])N[*:1])[*:2]; hTyr(3S-OH,4S-OH) = N[C@H](C(=O)O)[C@H](O)[C@@H](O)c1ccc(O)cc1; Pro(3S-OH,4S-Me) = C[C@H]1CN[C@H](C(=O)O)[C@H]1O; Hyp = O=C(O)[C@@H]1C[C@@H](O)CN1

Test system: Candida spp.
Assay: Spontaneous mutant selection, all 5 Candida strains together
Type: cell-based
Conditions: total vs. 5 Candida strains

For `CCCCCOc1ccc(-c2ccc(-c3ccc(C(=O)N[C@H]4C[C@@H](O)[C@@H](O)NC(=O)[C@@H]5[C@@H](O)[C@@H](C)CN5C(=O)[C@H]([C@@H](C)O)NC(=O)[C@H]([C@H](O)[C@@H](O)c5ccc(O)cc5)NC(=O)[C@@H]5C[C@@H](O)CN5C(=O)[C@H]([C@@H](C)O)NC4=O)cc3)cc2)cc1` [ANID, anidulafungin] ({pTerphenylCO(4''-OnC5H11)}-[Orn(4R-OH,5R-OH)]T[Hyp][hTyr(3S-OH,4S-OH)]T[Pro(3S-OH,4S-Me)]; lactam 1-C), the “spontaneous mutants recovered following selection” value was 128.

`CC[C@H](C)C[C@H](C)CCCCCCCCC(=O)N[C@H]1C[C@@H](O)[C@@H](NCCN)NC(=O)[C@@H]2[C@@H](O)CCN2C(=O)[C@H]([C@H](O)CCN)NC(=O)[C@H]([C@H](O)[C@@H](O)c2ccc(O)cc2)NC(=O)[C@@H]2C[C@@H](O)CN2C(=O)[C@H]([C@@H](C)O)NC1=O` [CAS, caspofungin] was tested, and the “spontaneous mutants recovered following selection” value was 281.
